According to the supplement of paper PMC4604168 (melanoma cell lines):
Some of the results follow. Single values are uncertain, as repeats are few or missing.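 Imaging used 1,536-well plates; nuclei positive for cleaved PARP by antibody were divided by total DNA-stained nuclei to yield the apoptosis fraction. Doses for screening kept most cells viable, and cell lines differ markedly in resting and induced cleaved-PARP levels.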

What was measured:
Experiment in all cases: cleaved PARP positive nuclei fraction relative to DMSO control; melanoma cells; higher = more apoptosis
Conditions in all cases: library dose: low library concentration; 72 h
501Mel = system: 501Mel
A101D = system: A101D
A2058 = system: A2058
A375 = system: A375
C32 = system: C32
CBRC008 = system: CBRC008 (line from a melanoma biopsy)
CBRC013 = system: CBRC013 (line from a melanoma biopsy)
CBRC014 = system: CBRC014 (line from a melanoma biopsy)
CBRC016 = system: CBRC016 (line from a melanoma biopsy)
CBRC017 = system: CBRC017 (line from a melanoma biopsy)

Row | Structure (SMILES) | cleaved PARP positive nuclei fraction (501Mel) | cleaved PARP positive nuclei fraction (A101D) | cleaved PARP positive nuclei fraction (A2058) | cleaved PARP positive nuclei fraction (A375) | cleaved PARP positive nuclei fraction (C32) | cleaved PARP positive nuclei fraction (CBRC008) | cleaved PARP positive nuclei fraction (CBRC013) | cleaved PARP positive nuclei fraction (CBRC014) | cleaved PARP positive nuclei fraction (CBRC016) | cleaved PARP positive nuclei fraction (CBRC017)
1 | CC[C@]1(O)C[C@H]2CN(CCc3c([nH]c4ccccc34)[C@@](C(=O)OC)(c3cc4c(cc3OC)N(C=O)[C@H]3[C@@](O)(C(=O)OC)[C@H](OC(C)=O)[C@]5(CC)C=CCN6CC[C@]43[C@@H]65)C2)C1 [vincristine] + CC1(C)NC(=O)N(c2ccc([N+](=O)[O-])c(C(F)(F)F)c2)C1=O [nilutamide] (first compound 0.0001 µM, partner dose 1 µM) | 99.8% | 108% | 684% | 114% | 608% | 144% | 108% | 109% | 224% | 146%
2 | Cc1cn(-c2cc(NC(=O)c3ccc(C)c(Nc4nccc(-c5cccnc5)n4)c3)cc(C(F)(F)F)c2)cn1 [nilotinib] + CC(C)(C)c1cnc(CSc2cnc(NC(=O)C3CCNCC3)s2)o1 [SNS-032] (first compound 0.2 µM, partner dose 0.01 µM) | 77.3% | 225% | 237% | 101% | 118% | 160% | 114% | 80.1% | 123% | 83.6%
3 | O=c1[nH]nc(Sc2ncc([N+](=O)[O-])s2)n1-c1ccc2c(c1)OCCO2 + CC(C)(C)c1cnc(CSc2cnc(NC(=O)C3CCNCC3)s2)o1 [SNS-032] (first compound 0.2 µM, partner dose 0.01 µM) | 151% | 41.9% | 135% | 109% | 143% | 62.1% | 153% | 99.3% | 158% | 157%
4 | COc1cc([C@@H]2c3cc4c(cc3[C@@H](O[C@@H]3O[C@@H]5CO[C@@H](C)O[C@H]5[C@H](O)[C@H]3O)[C@H]3COC(=O)[C@H]23)OCO4)cc(OC)c1O [etoposide] + Cc1ccc(NC(=O)c2cccc(N(C)C)c2)cc1NC(=O)c1ccc(O)cc1 [ZM336372] (first compound 0.02 µM, partner dose 2 µM) | 356% | 88.7% | 153% | 73.1% | 53.6% | 84% | 69.8% | 877% | 125% | 94%
5 | N#CC[C@H](C1CCCC1)n1cc(-c2ncnc3[nH]ccc23)cn1 [ruxolitinib] + O=C(Nc1cccc(Cl)c1)Nc1ncc(CCNc2ncnc3ccsc23)s1 [SNS314] (first compound 1 µM, partner dose 0.0008 µM) | 241% | 37.9% | 130% | 104% | 140% | 158% | 127% | 89.6% | 138% | 136%
6 | N#CC[C@H](C1CCCC1)n1cc(-c2ncnc3[nH]ccc23)cn1 [ruxolitinib] + NCC(=O)Nc1ccc(-n2nc(C(F)(F)F)cc2-c2ccc3c(ccc4ccccc43)c2)cc1 [OSU03012] (first compound 1 µM, partner dose 1 µM) | 635% | 164% | 53.8% | 1100% | 66.6% | 246% | 71.3% | 96.5% | 286% | 132%
7 | O=C(Nc1cc(C(F)(F)F)cc(C(F)(F)F)c1)c1cc(Cl)ccc1O + CC(C)(C)c1cnc(CSc2cnc(NC(=O)C3CCNCC3)s2)o1 [SNS-032] (first compound 0.016 µM, partner dose 0.01 µM) | 76% | 83.9% | 93.5% | 11.8% | 87.1% | 148% | 108% | 84.2% | 77.1% | 74.1%
8 | CCCCCCCCCCCCCCCCCCOP(=O)([O-])OC1CC[N+](C)(C)CC1 [Perifosine] + CO[C@@H]1[C@H](N(C)C(=O)c2ccccc2)C[C@H]2O[C@]1(C)n1c3ccccc3c3c4c(c5c6ccccc6n2c5c31)C(=O)NC4 [Midostaurin] (first compound 0.4 µM, partner dose 0.08 µM) | 260% | 95.4% | 177% | 1080% | 36% | 75.8% | 129% | 93.2% | 199% | 123%
9 | N#CC[C@H](C1CCCC1)n1cc(-c2ncnc3[nH]ccc23)cn1 [ruxolitinib] + CO[C@@H]1[C@H](N(C)C(=O)c2ccccc2)C[C@H]2O[C@]1(C)n1c3ccccc3c3c4c(c5c6ccccc6n2c5c31)C(=O)NC4 [Midostaurin] (first compound 1 µM, partner dose 0.08 µM) | 32.3% | 85.9% | 94.4% | 209% | 70.1% | 346% | 162% | 91.8% | 60.3% | 97.3%
10 | CC[C@]1(O)C[C@H]2CN(CCc3c([nH]c4ccccc34)[C@@](C(=O)OC)(c3cc4c(cc3OC)N(C=O)[C@H]3[C@@](O)(C(=O)OC)[C@H](OC(C)=O)[C@]5(CC)C=CCN6CC[C@]43[C@@H]65)C2)C1 [vincristine] + O=C(CCCCCCC(=O)Nc1ccccc1)NO [vorinostat] (first compound 0.0001 µM, partner dose 0.08 µM) | 226% | 61% | 64.2% | 145% | 224% | 196% | 112% | 82.5% | 253% | 116%
11 | N#CC[C@H](C1CCCC1)n1cc(-c2ncnc3[nH]ccc23)cn1 [ruxolitinib] + Cn1cncc1[C@@](N)(c1ccc(Cl)cc1)c1ccc2c(c1)c(-c1cccc(Cl)c1)cc(=O)n2C [tipifarnib] (first compound 1 µM, partner dose 0.01 µM) | 94.9% | 71.3% | 75.4% | 80.3% | 45% | 283% | 111% | 77.9% | 183% | 92.8%
12 | O=c1[nH]nc(Sc2ncc([N+](=O)[O-])s2)n1-c1ccc2c(c1)OCCO2 + COc1cc(Nc2ncc(F)c(Nc3ccc4c(n3)NC(=O)C(C)(C)O4)n2)cc(OC)c1OC [Tamatinib] (first compound 0.2 µM, partner dose 0.4 µM) | 61.2% | 91.4% | 238% | 103% | 42.8% | 231% | 89.7% | 102% | 71.7% | 100%
13 | O=c1[nH]nc(Sc2ncc([N+](=O)[O-])s2)n1-c1ccc2c(c1)OCCO2 + NC(=O)Nc1cc(-c2cccc(F)c2)sc1C(=O)N[C@H]1CCCNC1 [AZD7762] (first compound 0.2 µM, partner dose 0.02 µM) | 74.3% | 111% | 53.7% | 352% | 122% | 80.6% | 176% | 81.1% | 186% | 78.3%
14 | CC[C@]1(O)C[C@H]2CN(CCc3c([nH]c4ccccc34)[C@@](C(=O)OC)(c3cc4c(cc3OC)N(C=O)[C@H]3[C@@](O)(C(=O)OC)[C@H](OC(C)=O)[C@]5(CC)C=CCN6CC[C@]43[C@@H]65)C2)C1 [vincristine] + Cc1ccc(NC(=O)c2cccc(N(C)C)c2)cc1NC(=O)c1ccc(O)cc1 [ZM336372] (first compound 0.0001 µM, partner dose 2 µM) | 104% | 74.3% | 973% | 376% | 285% | 208% | 123% | 116% | 50.6% | 114%
15 | Cc1ccc(Nc2nccc(N(C)c3ccc4c(C)n(C)nc4c3)n2)cc1S(N)(=O)=O [Pazopanib] + O=C(Nc1cccc(Cl)c1)Nc1ncc(CCNc2ncnc3ccsc23)s1 [SNS314] (first compound 0.4 µM, partner dose 0.0008 µM) | 95% | 80.1% | 76.2% | 103% | 175% | 62.3% | 87.5% | 105% | 96.5% | 102%
16 | Cc1cn(-c2cc(NC(=O)c3ccc(C)c(Nc4nccc(-c5cccnc5)n4)c3)cc(C(F)(F)F)c2)cn1 [nilotinib] + CC1(C)NC(=O)N(c2ccc([N+](=O)[O-])c(C(F)(F)F)c2)C1=O [nilutamide] (first compound 0.2 µM, partner dose 1 µM) | 178% | 44.8% | 102% | 74.6% | 66.4% | 143% | 121% | 93.2% | 23.8% | 106%
17 | O=C(Nc1cc(C(F)(F)F)cc(C(F)(F)F)c1)c1cc(Cl)ccc1O + Cc1ccc(NC(=O)c2cccc(N(C)C)c2)cc1NC(=O)c1ccc(O)cc1 [ZM336372] (first compound 0.016 µM, partner dose 2 µM) | 107% | 88.6% | 103% | 76.4% | 107% | 55.7% | 106% | 113% | 94.3% | 101%
18 | O=c1[nH]nc(Sc2ncc([N+](=O)[O-])s2)n1-c1ccc2c(c1)OCCO2 + COc1cc2c(Oc3ccc4[nH]c(C)cc4c3F)ncnc2cc1OCCCN1CCCC1 [cediranib] (first compound 0.2 µM, partner dose 0.4 µM) | 155% | 196% | 102% | 74.5% | 170% | 198% | 88% | 96.5% | 69.7% | 90.7%
19 | O=C(/C=C/c1cccnc1)NCCCCC1CCN(C(=O)c2ccccc2)CC1 + Cc1nc(Nc2ncc(C(=O)Nc3c(C)cccc3Cl)s2)cc(N2CCN(CCO)CC2)n1 [dasatanib] (first compound 0.01 µM, partner dose 0.004 µM) | 134% | 88.1% | 124% | 118% | 164% | 3360% |  | 142% | 922% | 478%
20 | Cc1cn(-c2cc(NC(=O)c3ccc(C)c(Nc4nccc(-c5cccnc5)n4)c3)cc(C(F)(F)F)c2)cn1 [nilotinib] + CN(c1ncccc1CNc1nc(Nc2ccc3c(c2)CC(=O)N3)ncc1C(F)(F)F)S(C)(=O)=O [PF562271] (first compound 0.2 µM, partner dose 0.08 µM) | 86.2% | 139% | 133% | 80.2% | 82.5% | 31.2% |  | 130% | 89.4% | 88.2%

A few values from the results shown.
Cc1cn(-c2cc(NC(=O)c3ccc(C)c(Nc4nccc(-c5cccnc5)n4)c3)cc(C(F)(F)F)c2)cn1 [nilotinib] + CN(c1ncccc1CNc1nc(Nc2ccc3c(c2)CC(=O)N3)ncc1C(F)(F)F)S(C)(=O)=O [PF562271] (first compound 0.2 µM, partner dose 0.08 µM) – cleaved PARP positive nuclei fraction (CBRC014): 130%
N#CC[C@H](C1CCCC1)n1cc(-c2ncnc3[nH]ccc23)cn1 [ruxolitinib] + CO[C@@H]1[C@H](N(C)C(=O)c2ccccc2)C[C@H]2O[C@]1(C)n1c3ccccc3c3c4c(c5c6ccccc6n2c5c31)C(=O)NC4 [Midostaurin] (first compound 1 µM, partner dose 0.08 µM) – cleaved PARP positive nuclei fraction (A101D): 85.9%
